Results as given in patent publication US20120258099A1.
No constants are given. Whether binding was seen depends on the method and setting. Some binding calls cover weakened binding; strength is not graded here.

Target: Trio DH2-PH2 (in the pPC97 vector), two-hybrid bait (UniProt O75962)
Assay: yeast two-hybrid, 80-120 mM 3-AT

binding, binds:
AREGADGAICGYNLATLVMLGPSERVFCPLCGPCSTDIYELM (peptide, not shown: large carriers) [TRIP-like peptide E^32G/S^36T, two-hybrid clone in pPC86]
AREGADGAICGYNLAALGMLGPSERVFCPLCGPCSSDNYELM (peptide, not shown: large carriers) [TRIP-like peptide T^16A/V^18G/E^32G/I^38N, two-hybrid clone in pPC86]
AREGADGAICGYNLATLAMLGPSARVFCPLCGPCSSDIYELM (peptide, not shown: large carriers) [TRIP-like peptide V^18A/E^24A/E^32G, two-hybrid clone in pPC86]
AREGADGAICGYDLAMLVMLGPSERVFCPLCEPRSSDIYELM (peptide, not shown: large carriers) [TRIP-like peptide N^13D/T^16M/C^34R, two-hybrid clone in pPC86]
AREGADGAICGYNLAASVMLGPSERVFCPLCEPRSPDIYELM (peptide, not shown: large carriers) [TRIP-like peptide T^16A/L^17S/C^34R/S^36P, two-hybrid clone in pPC86]
AREGADGAICGYNLATLDMLGPSERVFCPLCEPCSSDSYELM (peptide, not shown: large carriers) [TRIP-like peptide V^18D/I^38S, two-hybrid clone in pPC86]
AREGADGAICGYNLATLVMLGPSERVFCPLCGPCSSDIYELM (peptide, not shown: large carriers) [TRIP-like peptide E^32G, two-hybrid clone in pPC86]
AREGADGAICGYNLAMSVMLGPSERVFCPLCEPCSSDIYELM (peptide, not shown: large carriers) [TRIP-like peptide T^16M/L^17S, two-hybrid clone in pPC86]
AREGADGAICGYNLAMLVMLGPSERVFCPLCEPCSSDIYELM (peptide, not shown: large carriers) [TRIP-like peptide T^16M, two-hybrid clone in pPC86]
AREGADGAICGYNLAMLVMLGPGERVFCPLCEPCSSDIYELM (peptide, not shown: large carriers) [TRIP-like peptide T^16M/S^32G, two-hybrid clone in pPC86]
TREGADGAICGYNLATLDMLGPSERVLCPLCEPCSSDIYELM (peptide, not shown: large carriers) [TRIP-like peptide A^1T/V^18D/F^27L, two-hybrid clone in pPC86]
